# PubChem BioAssay AID1053208, Peter MacCallum Cancer Centre – 2014
# Aim: 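Genes whose silencing cuts survival of bone tumour cells only with doxorubicin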 (primary screen)
# Cell system: mouse osteosarcoma cells, early-passage culture from an engineered mouse model of fibroblastic bone tumour
# Knock-down reagent: siRNA pool against mouse genes, 40 nM
# Timing: about 120 h (48 h before drug, then 72 h with drug)
# Treatment: doxorubicin 100 nM for 72 h, roughly 30-40% inhibitory dose
# Measurement: 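Viability read as ATP luminescence after 72 h of 100 nM doxorubicin or none, duplicate wells averaged, scaled to non-targeting siRNA, then expressed as robust z-scores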
# Reading the numbers: viability z-score with doxorubicin: higher = more viable cells under doxorubicin; viability z-score without drug: higher = more viable cells with knock-down alone
# Active means: 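a pool counts as active when its viability z-score with doxorubicin is -2 or below and its z-score without drug lies between -2 and 2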
# In all, the deposit lists about 17,000 reagents; below is a random part of them. In the full data, 788 (4.7%) got an active call. 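Calls rest on z-score classes alone; an extra cut-off of viability at most 70% of control was not applied to them.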 Entries without a mark were called inactive. Reagents against one gene are numbered here. Further read-outs or replicates are left out here.
Target gene,reagent,combined z-score class,viability z-score with doxorubicin,viability z-score without drug
Gjd4,1,no change with or without drug,-0.67,-0.51
Deup1,1,no change with or without drug,0.67,-0.17
Cldn5,1,no change with or without drug,0.45,-0.17
Brdt,1,no change with or without drug,-1.12,1.18
Syce2,1,no change with or without drug,-0.67,0.51
Ca2,1,no change with or without drug,0.22,0.51
Zmat4,1,no change with or without drug,-0.67,-0.17
Dph6,1,no change with or without drug,0.22,1.01
Leng9,1,no change with or without drug,1.12,0.84
Rngtt,1,no change with or without drug,-0.22,-1.18
Bcl2a1b,1,no change with or without drug,0.79,0.84
Acvrl1,1,high cell count without drug only,-0.45,2.7
Or51b6,1,no change with or without drug,-1.46,-0.84
Zfp609,1,no change with or without drug,1.12,-0.17
Gba1,1,no change with or without drug,-0.34,-0.84
Cotl1,1,no change with or without drug,1.12,0.34
Prdm4,1,high cell count with doxorubicin only,2.02,1.69
Elof1,1,high cell count with doxorubicin only,2.36,1.01
Magea6,1,low cell count with doxorubicin only (active),-4.05,-1.18
Tmem38a,1,no change with or without drug,-0.56,-1.18
Bud13,1,no change with or without drug,0.67,0.17
Trappc2,1,no change with or without drug,-0.11,-0.17
Scaf8,1,no change with or without drug,0.56,0.51
Scaf8,2,no change with or without drug,0.79,0.34
Tnfsf4,1,no change with or without drug,0.45,1.85
Arhgap10,1,no change with or without drug,0.11,-1.01
Itprid2,1,no change with or without drug,1.12,0.34
Tmem117,1,no change with or without drug,-0.45,-0.51
Lrrc59,1,no change with or without drug,0.22,-0.17
Prep,1,no change with or without drug,0.22,1.18
Raver1,1,high cell count with and without drug,2.81,2.7
Dcx,1,no change with or without drug,1.8,1.52
Zfp14,1,no change with or without drug,0.67,0.17
Haus6,1,no change with or without drug,-0.67,-1.85
Zfp426,1,no change with or without drug,-0.67,-1.85
Tmem169,1,no change with or without drug,1.35,0.84
Pcdhga11,1,no change with or without drug,-1.57,-0.84
Or5d37,1,low cell count without drug only,-1.12,-2.19
Sfpq,1,no change with or without drug,0.67,-0.51
Olfm1,1,no change with or without drug,0.67,-1.52
Spdye4a,1,no change with or without drug,-0.9,0.34
Sft2d2,1,no change with or without drug,0.67,0.17
Lypd6,1,no change with or without drug,-1.57,0.51
Dner,1,no change with or without drug,0.9,0.34
Bmp3,1,low cell count without drug only,-1.57,-2.53
Rab3d,1,no change with or without drug,-0.45,0.84
Chrm4,1,no change with or without drug,1.24,0.17
Ccdc9,1,no change with or without drug,-1.01,0.17
Cwh43,1,no change with or without drug,0.34,1.01
Dph7,1,no change with or without drug,-0.9,0

5 of these entries in another layout.
{"Target gene": "Gjd4", "reagent": 1, "combined z-score class": "no change with or without drug", "viability z-score with doxorubicin": -0.67, "viability z-score without drug": -0.51}
{"Target gene": "Deup1", "reagent": 1, "combined z-score class": "no change with or without drug", "viability z-score with doxorubicin": 0.67, "viability z-score without drug": -0.17}
{"Target gene": "Cldn5", "reagent": 1, "combined z-score class": "no change with or without drug", "viability z-score with doxorubicin": 0.45, "viability z-score without drug": -0.17}
{"Target gene": "Brdt", "reagent": 1, "combined z-score class": "no change with or without drug", "viability z-score with doxorubicin": -1.12, "viability z-score without drug": 1.18}
{"Target gene": "Syce2", "reagent": 1, "combined z-score class": "no change with or without drug", "viability z-score with doxorubicin": -0.67, "viability z-score without drug": 0.51}
